PubChem BioAssay AID1508597, Cure First | 2020

Test: 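Knock-downs altering ovarian cancer cell survival with or without PARP inhibitor rucaparib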 (primary screen)
Cells: human ovarian carcinoma lines grown from tumours: OCI-P5x (papillary serous) and OCI-C5x (clear cell)
Knock-down reagent: siRNA pool against human genes, 1.25 pmol siRNA per well
Timing: 72 h or 96 h, depending on the cell culture
Treatment: rucaparib 20 µM (about IC30) or vehicle, present until read-out
Measured: 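ATP luminescence measured at 72 or 96 h according to the culture, then normalised and expressed as percent viability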
Reading the numbers: viability, normalised: higher = more viable cells remaining
Rule for the call: 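a well counts as a hit if its normalised viability is under 80 percent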
Calls: active = viability under 80%; inactive = viability 80% or more
Here is a random part of about 2,100 reagents. 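Calls flag viability under 80% in either arm, not effects specific to rucaparib; the reference for percent is not stated.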 Reagent sequences are not shown. The record does not give: the 100% reference.

| gene knocked down | rucaparib or vehicle | cell line | technical replicate | viability, normalised (%) | Call |
| --- | --- | --- | --- | --- | --- |
| MED9 (mediator complex subunit 9) | Rucaparib | OCI-C5x (clear cell) | 1 | 39.8 | active |
| MED9 (mediator complex subunit 9) | Rucaparib | OCI-C5x (clear cell) | 2 | 39.9 | active |
| MED9 (mediator complex subunit 9) | Rucaparib | OCI-C5x (clear cell) | 3 | 22.3 | active |
| MED9 (mediator complex subunit 9) | Rucaparib | OCI-P5x (serous) | 1 | 71.8 | active |
| MED9 (mediator complex subunit 9) | Rucaparib | OCI-P5x (serous) | 2 | 57.9 | active |
| MED9 (mediator complex subunit 9) | Rucaparib | OCI-P5x (serous) | 3 | 72.5 | active |
| MED9 (mediator complex subunit 9) | Vehicle | OCI-C5x (clear cell) | 1 | 26.8 | active |
| MED9 (mediator complex subunit 9) | Vehicle | OCI-C5x (clear cell) | 2 | 53.1 | active |
| MED9 (mediator complex subunit 9) | Vehicle | OCI-C5x (clear cell) | 3 | 42.4 | active |
| MED9 (mediator complex subunit 9) | Vehicle | OCI-P5x (serous) | 1 | 63 | active |
| MED9 (mediator complex subunit 9) | Vehicle | OCI-P5x (serous) | 2 | 69.2 | active |
| MED9 (mediator complex subunit 9) | Vehicle | OCI-P5x (serous) | 3 | 78.4 | active |
| CARMIL1 (capping protein regulator and myosin 1 linker 1) | Rucaparib | OCI-C5x (clear cell) | 1 | 53 | active |
| CARMIL1 (capping protein regulator and myosin 1 linker 1) | Rucaparib | OCI-C5x (clear cell) | 2 | 48.4 | active |
| CARMIL1 (capping protein regulator and myosin 1 linker 1) | Rucaparib | OCI-C5x (clear cell) | 3 | 64.7 | active |
| CARMIL1 (capping protein regulator and myosin 1 linker 1) | Rucaparib | OCI-P5x (serous) | 1 | 58.1 | active |
| CARMIL1 (capping protein regulator and myosin 1 linker 1) | Rucaparib | OCI-P5x (serous) | 2 | 59.6 | active |
| CARMIL1 (capping protein regulator and myosin 1 linker 1) | Rucaparib | OCI-P5x (serous) | 3 | 66.2 | active |
| CARMIL1 (capping protein regulator and myosin 1 linker 1) | Vehicle | OCI-C5x (clear cell) | 1 | 55 | active |
| CARMIL1 (capping protein regulator and myosin 1 linker 1) | Vehicle | OCI-C5x (clear cell) | 2 | 61.6 | active |
| CARMIL1 (capping protein regulator and myosin 1 linker 1) | Vehicle | OCI-C5x (clear cell) | 3 | 55.4 | active |
| CARMIL1 (capping protein regulator and myosin 1 linker 1) | Vehicle | OCI-P5x (serous) | 1 | 63 | active |
| CARMIL1 (capping protein regulator and myosin 1 linker 1) | Vehicle | OCI-P5x (serous) | 2 | 76.4 | active |
| CARMIL1 (capping protein regulator and myosin 1 linker 1) | Vehicle | OCI-P5x (serous) | 3 | 77.4 | active |
